Test results reported in PubChem BioAssay AID1671190 (National Center for Advancing Translational Sciences (NCATS), 2021).
Hit rate of the full screen: of about 580,000 compounds, about 6,100 (1.1%) were called active. This list was built around the results that the source calls inconclusive (neither active nor inactive); the mix of calls is not that of the screen. Calls follow the shape of the dose curve; as a rule, active = well fitted inhibition curve with a large enough effect; inconclusive = small, poorly fitted or top-dose-only effect, or another doubt; inactive = no such curve, though single readings can be large or run the other way. Where the call is inconclusive, the potency comes from a doubtful curve fit.

Sequences of proteins named here, by UniProt entry; tags and fusion partners are left off. A change or cut given only in a name is not applied to a line headed by its entry.
UniProt P18054: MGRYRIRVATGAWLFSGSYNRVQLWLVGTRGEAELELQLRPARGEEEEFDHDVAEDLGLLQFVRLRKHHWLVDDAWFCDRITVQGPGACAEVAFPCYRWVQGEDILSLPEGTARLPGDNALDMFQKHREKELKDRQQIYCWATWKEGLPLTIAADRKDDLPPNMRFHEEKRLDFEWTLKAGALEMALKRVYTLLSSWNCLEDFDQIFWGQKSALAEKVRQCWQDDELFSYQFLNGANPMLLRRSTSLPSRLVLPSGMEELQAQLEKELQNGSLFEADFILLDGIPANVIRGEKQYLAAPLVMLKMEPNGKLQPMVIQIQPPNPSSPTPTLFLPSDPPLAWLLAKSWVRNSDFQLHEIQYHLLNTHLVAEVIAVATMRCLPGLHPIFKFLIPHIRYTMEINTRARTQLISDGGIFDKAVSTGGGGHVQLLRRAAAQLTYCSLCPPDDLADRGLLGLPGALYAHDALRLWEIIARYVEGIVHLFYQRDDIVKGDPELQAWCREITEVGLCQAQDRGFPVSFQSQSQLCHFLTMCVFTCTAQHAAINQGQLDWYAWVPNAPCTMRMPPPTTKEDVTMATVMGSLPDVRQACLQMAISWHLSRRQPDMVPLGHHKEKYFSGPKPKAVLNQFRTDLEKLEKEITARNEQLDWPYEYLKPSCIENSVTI

Target: Polyunsaturated fatty acid lipoxygenase ALOX12 (Homo sapiens) (UniProt P18054)
Experiment: Primary qHTS assay for inhibitors of human arachidonate 12S-lipoxygenase (ALOX12): Round 2
Details: purified 12hLO, xylenol orange hydroperoxide absorbance; activity change, negative = inhibition: at 108 µM (top of the series) unless noted
In short: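 Purified human 12hLO (150 nM final) in 25 mM Hepes, 0.01% Triton X-100, pH 7.0 was preincubated 15 min at room temperature with compound. Then 40 uM arachidonic acid was added, 30 min. Hydroperoxide was read by Fe-XO absorbance ratio 573/405 nm.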
% is scaled to controls: 0 for no effect and ±100 for the full control effect; potency is read from the fitted curve at half-maximal effect.

| Structure (SMILES) | activity change, negative = inhibition | Potency |
| --- | --- | --- |
| N#C/C(=C\c1ccc(N2CCOCC2)o1)c1nc2ccccc2[nH]1 | inactive: 119% | – |
| COc1ccc(S(=O)(=O)n2nc(-c3ccco3)nc2NCc2ccc(C(C)C)cc2)cc1 | – | inconclusive: 5.01 µM [inhibitor, full curve, poor fit] |
| O=C(NCCCN1CCN(c2ccccc2F)CC1)c1ccc2nc(CCc3ccccc3)oc2c1 | – | inconclusive: 100 µM [inhibitor, single point] |
| Cc1csc(NC(=O)CN2CCCCCC2)n1 | – | inconclusive: 0.251 µM [inhibitor, full curve, poor fit] |
| FC(F)(F)c1ccccc1Cc1c(C2CCCCC2)nc2ccc(Cl)cn12 | – | inconclusive: 126 µM [inhibitor, single point] |
| CC(=O)c1cccc(NC(=O)c2sc(Cl)nc2C)c1 | – | inconclusive: 39.8 µM [inhibitor, partial curve, poor fit] |
| CCOC(=O)c1c(C)n(CC(=O)OC)c2ccc(O)cc12 | inactive: -0.603% | – |
| Cc1c(C(=O)NCc2ccc(C(C)C)cc2)sc(=O)n1Cc1cccc(F)c1 | – | inconclusive: 28.2 µM [inhibitor, partial curve, poor fit] |
| Cc1cccc(OCc2nc3c(C)cccc3[nH]2)c1 | inactive: -6.87% | – |
| O=C(Nc1ccc(F)cc1)C(Sc1cccc[n+]1[O-])c1ccccc1 (stereo not drawn) | – | inconclusive: 56.2 µM [inhibitor, partial curve, poor fit] |
| COC(=O)c1ccc(CSc2n[nH]c(C)n2)o1 | inactive: -10.6% | – |
| Cc1cc2oc(=O)cc(CN3CCCCCCC3)c2cc1Cl | inactive: -62.1% | – |
| COc1ccc(CCNC2CC(=O)N(CCc3ccc(OC)c(OC)c3)C2=O)cc1OC (stereo not drawn) | – | inconclusive: 35.5 µM [inhibitor, partial curve, poor fit] |
| COc1ccc(CN=Cc2[nH]c3ccc(Br)c(Cl)c3c2O)cc1 | – | inconclusive: 12.6 µM [inhibitor, full curve] |
| O=c1[nH]c(C2CCN(S(=O)(=O)c3ccccc3C(F)(F)F)CC2)nc2c1nnn2Cc1cccc(F)c1 | inactive: -17.3% | – |
| CC(=O)N1C=Cc2ccccc2C1CC(=O)Nc1ccc(S(=O)(=O)N2CCCCCC2)cc1 (stereo not drawn) | – | inconclusive: 44.7 µM [inhibitor, partial curve, poor fit] |
| O=C(NCCCN1CCCC1=O)c1ccc2c(=O)n(-c3ccccc3F)c(=S)[nH]c2c1 | – | inconclusive: 50.1 µM [inhibitor, partial curve, poor fit] |
| COc1ccc(NC(=O)/C(C#N)=C\c2ccc(OCc3ccc(C(=O)O)cc3)c(OC)c2)cc1 | inactive: -0.955% | – |
| COc1ccc(-c2nc3ccccc3c(C)c2CC(=O)O)cc1OC | – | inconclusive: 50.1 µM [inhibitor, partial curve, poor fit] |
| CC(=O)C1=C(O)C(=O)N(c2ccc(Br)cn2)C1c1ccc(F)cc1 (stereo not drawn) | – | inconclusive: 7.94 µM [inhibitor, partial curve, poor fit] |
| Cn1c(=O)c2[nH]c(N=NNc3ccccc3F)nc2n(C)c1=O | – | inconclusive: 7.94 µM [inhibitor, full curve, poor fit] |
| Cc1ccc(F)c(NC=C2C(=O)OC(C)(C)OC2=O)c1 | – | inconclusive: 0.794 µM [inhibitor, full curve, poor fit] |

| Structure (SMILES) | activity change, negative = inhibition | Potency |
| --- | --- | --- |
| COc1ccccc1C1C(C(=O)c2ccco2)=C(O)C(=O)N1c1cc(C)on1 (stereo not drawn) | – | inconclusive: 56.2 µM [inhibitor, partial curve, poor fit] |
| Cc1ccc(CNc2oc(-c3cccs3)nc2C#N)cc1 | – | inconclusive: 11.2 µM [inhibitor, partial curve, poor fit] |
| Cc1cc(OCCCCN2C(=O)NC(C)(C)C2=O)cc(C)c1Cl | – | inconclusive: 89.1 µM [inhibitor, partial curve, poor fit] |
| Cn1c(SCc2csc(-c3ccsc3)n2)nnc1C1CC1 | – | inconclusive: 3.55 µM [inhibitor, full curve, poor fit] |
| Clc1ccc(COc2ccc(CNC3CC3)cc2)cc1 | – | inconclusive: 39.8 µM [inhibitor, partial curve, poor fit] |
| CC(C)c1ccc(/C=C/C(=O)NCc2ccc(S(N)(=O)=O)cc2)cc1 | inactive: -27.1% | – |
| CC(C)c1ccccc1OCC(O)Cn1cnc2c1c(=O)n(C)c(=O)n2C (stereo not drawn) | inactive: -41.3% | – |
| COCCNc1nc(NCCOC)c2sc(-c3ccccc3)cc2n1 | inactive: -12.1% | – |
| COc1ccc(C)cc1NC(=O)CN1C(=O)NC(c2ccc(C)cc2)C2=C1COC2=O (stereo not drawn) | inactive: 3.61% | – |
| O=C(NCc1ccc(OC(F)F)cc1)C1CCN(S(=O)(=O)c2cccnc2)CC1 | – | inconclusive: 28.2 µM [inhibitor, single point] |
| COc1ccc(CNC(=O)CCc2c(C)nc3cc(-c4ccc(OC)cc4OC)nn3c2C)cc1 | inactive: -18.6% | – |
| CCCCc1ccc(S(=O)(=O)Nc2ccc(C)c(NS(C)(=O)=O)c2)cc1 | – | inconclusive: 79.4 µM [inhibitor, single point] |
| N#C/C(=C\c1ccccc1OC(=O)c1cccc2ccccc12)C(=O)Nc1ccccc1C(F)(F)F | inactive: -6.28% | – |
| C#Cc1cccc(OC[C@@H](O)CN2CCC(C(O)(c3ccccc3)c3ccccc3)CC2)c1 | – | inconclusive: 44.7 µM [inhibitor, partial curve, poor fit] |
| COc1ccc(NC(=O)Cn2c(=O)c(CNc3ccccc3)cc3cc(OC)c(OC)cc32)cc1 | – | inconclusive: 3.55 µM [inhibitor, full curve, poor fit] |
| CCCCCCCSc1nsc(N)n1 | – | inconclusive: 79.4 µM [inhibitor, partial curve, poor fit] |
| O=Cc1cc(Cl)ccc1OCCN1CCC(Cc2ccccc2)CC1 | – | active: 2.24 µM |
| Nc1c(C(=O)N/N=C/c2ccc(F)cc2)oc2nc(-c3ccccc3)cc(-c3ccco3)c12 | inactive: 5.5% | – |
| COc1ccccc1-c1ccc2ncnc(Nc3ccccc3)c2c1 | – | inconclusive: 35.5 µM [inhibitor, partial curve] |
| COCCN[C@H]1[C@@H]2OC[C@@H](O2)[C@@H](NCc2ccc(-c3ccccc3)cc2)[C@@H]1O | inactive: 139% [at 176 µM] | – |
| COc1cccc(-c2ccc(NC(=O)C3=C(C(=O)O)CCC3)c(F)c2)c1 | – | inconclusive: 30.6 µM [inhibitor, partial curve, poor fit] |

Of the compounds above, these have bromine:

| Structure (SMILES) | activity change, negative = inhibition | Potency |
| --- | --- | --- |
| COc1ccc(CN=Cc2[nH]c3ccc(Br)c(Cl)c3c2O)cc1 | – | inconclusive: 12.6 µM [inhibitor, full curve] |
| CC(=O)C1=C(O)C(=O)N(c2ccc(Br)cn2)C1c1ccc(F)cc1 (stereo not drawn) | – | inconclusive: 7.94 µM [inhibitor, partial curve, poor fit] |
